Reference: PubChem BioAssay AID1508597 (Cure First, 2020)
Purpose: 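Survival screen with siRNA in ovarian cancer cells derived from patients, with or without rucaparib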 (primary screen). Cell system: human ovarian carcinoma lines grown from tumours: OCI-P5x (papillary serous) and OCI-C5x (clear cell). Reagents: siRNA pool against human genes, 1.25 pmol siRNA per well. Timing: 72 h or 96 h, depending on the cell culture. Conditions: rucaparib 20 µM (about IC30) or vehicle, present until read-out. Detection: 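Luminescent ATP-based viability assay read 72 or 96 h after transfection, depending on culture, given as normalised percent viability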. Reading the numbers: viability, normalised: higher = more viable cells remaining. Call rule: 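Active when normalised viability falls below 80 percent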. Meaning of the calls: active = viability under 80%; inactive = viability 80% or more.
Here is one part, drawn at random, of about 2,100 reagents tested. 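Calls flag viability under 80% in either arm, not effects specific to rucaparib; the reference for percent is not stated.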 A reagent listed more than once was tested more than once; the source does not tell the runs apart. Not given: the 100% reference.

no.	Gene	rucaparib or vehicle	cell line	technical replicate	viability, normalised (%)	Outcome
1	GINS1	Rucaparib	OCI-C5x (clear cell)	1	59.5	active
2	GINS1	Rucaparib	OCI-C5x (clear cell)	2	47.3	active
3	GINS1	Rucaparib	OCI-C5x (clear cell)	3	47.5	active
4	GINS1	Rucaparib	OCI-P5x (serous)	1	67.4	active
5	GINS1	Rucaparib	OCI-P5x (serous)	2	55.7	active
6	GINS1	Rucaparib	OCI-P5x (serous)	3	73.3	active
7	GINS1	Vehicle	OCI-C5x (clear cell)	1	59.9	active
8	GINS1	Vehicle	OCI-C5x (clear cell)	2	45.9	active
9	GINS1	Vehicle	OCI-C5x (clear cell)	3	46.1	active
10	GINS1	Vehicle	OCI-P5x (serous)	1	54.1	active
11	GINS1	Vehicle	OCI-P5x (serous)	2	64.9	active
12	GINS1	Vehicle	OCI-P5x (serous)	3	68.7	active
13	DHX8	Rucaparib	OCI-C5x (clear cell)	1	31.4	active
14	DHX8	Rucaparib	OCI-C5x (clear cell)	2	23.6	active
15	DHX8	Rucaparib	OCI-C5x (clear cell)	3	19.6	active
16	DHX8	Rucaparib	OCI-P5x (serous)	1	50	active
17	DHX8	Rucaparib	OCI-P5x (serous)	2	48.4	active
18	DHX8	Rucaparib	OCI-P5x (serous)	3	52.9	active
19	DHX8	Vehicle	OCI-C5x (clear cell)	1	15.4	active
20	DHX8	Vehicle	OCI-C5x (clear cell)	2	18.2	active
21	DHX8	Vehicle	OCI-C5x (clear cell)	3	23.2	active
22	DHX8	Vehicle	OCI-P5x (serous)	1	32.1	active
23	DHX8	Vehicle	OCI-P5x (serous)	2	40.1	active
24	DHX8	Vehicle	OCI-P5x (serous)	3	29.9	active
25	DDX42	Rucaparib	OCI-C5x (clear cell)	1	49.1	active
26	DDX42	Rucaparib	OCI-C5x (clear cell)	2	41.2	active
27	DDX42	Rucaparib	OCI-C5x (clear cell)	3	40.9	active
28	DDX42	Rucaparib	OCI-P5x (serous)	1	57.8	active
29	DDX42	Rucaparib	OCI-P5x (serous)	2	68.5	active
30	DDX42	Rucaparib	OCI-P5x (serous)	3	63.9	active
31	DDX42	Vehicle	OCI-C5x (clear cell)	1	32.9	active
32	DDX42	Vehicle	OCI-C5x (clear cell)	2	53.1	active
33	DDX42	Vehicle	OCI-C5x (clear cell)	3	42.3	active
34	DDX42	Vehicle	OCI-P5x (serous)	1	56.2	active
35	DDX42	Vehicle	OCI-P5x (serous)	2	60.5	active
36	DDX42	Vehicle	OCI-P5x (serous)	3	65.8	active

A stretch from the list above, for reference:
no.	Gene	rucaparib or vehicle	cell line	technical replicate	viability, normalised (%)	Outcome
8	GINS1	Vehicle	OCI-C5x (clear cell)	2	45.9	active
9	GINS1	Vehicle	OCI-C5x (clear cell)	3	46.1	active
10	GINS1	Vehicle	OCI-P5x (serous)	1	54.1	active
11	GINS1	Vehicle	OCI-P5x (serous)	2	64.9	active

The listing continues.
no.	Gene	rucaparib or vehicle	cell line	technical replicate	viability, normalised (%)	Outcome
37	SMC1A	Rucaparib	OCI-C5x (clear cell)	1	32.9	active
38	SMC1A	Rucaparib	OCI-C5x (clear cell)	1	49.2	active
39	SMC1A	Rucaparib	OCI-C5x (clear cell)	2	30.8	active
40	SMC1A	Rucaparib	OCI-C5x (clear cell)	2	80.6	inactive
41	SMC1A	Rucaparib	OCI-C5x (clear cell)	3	94.4	inactive
42	SMC1A	Rucaparib	OCI-C5x (clear cell)	3	28	active
43	SMC1A	Rucaparib	OCI-P5x (serous)	1	145	inactive
44	SMC1A	Rucaparib	OCI-P5x (serous)	1	51.6	active
45	SMC1A	Rucaparib	OCI-P5x (serous)	2	169	inactive
46	SMC1A	Rucaparib	OCI-P5x (serous)	2	45.8	active
47	SMC1A	Rucaparib	OCI-P5x (serous)	3	153	inactive
48	SMC1A	Rucaparib	OCI-P5x (serous)	3	49.3	active
49	SMC1A	Vehicle	OCI-C5x (clear cell)	1	31.6	active
50	SMC1A	Vehicle	OCI-C5x (clear cell)	1	61.9	active
51	SMC1A	Vehicle	OCI-C5x (clear cell)	2	28.5	active
52	SMC1A	Vehicle	OCI-C5x (clear cell)	2	64.4	active
53	SMC1A	Vehicle	OCI-C5x (clear cell)	3	36.1	active
54	SMC1A	Vehicle	OCI-C5x (clear cell)	3	62.1	active
55	SMC1A	Vehicle	OCI-P5x (serous)	1	44.2	active
56	SMC1A	Vehicle	OCI-P5x (serous)	1	133	inactive
57	SMC1A	Vehicle	OCI-P5x (serous)	2	53.6	active
58	SMC1A	Vehicle	OCI-P5x (serous)	2	109	inactive
59	SMC1A	Vehicle	OCI-P5x (serous)	3	60.3	active
60	SMC1A	Vehicle	OCI-P5x (serous)	3	130	inactive
